Results deposited as PubChem BioAssay AID1259405 (NCATS, 2018)
Here is one part, drawn at random, of about 50,000 reagents tested. About 4,000 of them (8%) count as active. 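Mouse siRNA library applied to hamster cells; one well for each siRNA.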 Entries without a mark were called inactive. Reagents against one gene are numbered here. Further read-outs or replicates are left out here.

- Aim: 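Silenced genes that increase secreted GFP made by CHO cells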 (primary screen)
- System: Chinese hamster CHO-K1 ovary cells with stable secreted eGFP expression
- Knock-down reagent: single siRNA against mouse genes, 0.8 pmol siRNA per well (2 µl of 400 nM stock)
- Duration: 3 days
- Measured: 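Per-well intracellular GFP measured by laser scanning cytometry, plus viability from ATP luminescence, each relative to plate median of non-targeting control wells, in %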
- Reading the numbers: GFP, % of control: higher = more GFP per well, higher productivity
- Hit rule: 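a knock-down is called active if GFP reaches 120% or more of non-targeting control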

GFP, % of control, by target and reagent
Pla2g5: #1 57.5; #2 72.2; #3 80.9
Blnk: #1 43.2; #2 61.3; #3 70.8
Sox9: #1 105; #2 82.2; #3 71.7
Homer2: #1 72.3; #2 91.5; #3 66.5; #4 55.7; #5 70.5; #6 100
Dpf2: #1 54.6; #2 52.2; #3 101
Glra3: #1 100; #2 77.6; #3 71.1
Mydgf: #1 68.9; #2 107; #3 72.2
Gpx7: #1 81.2; #2 54.9; #3 106
Gm5431: #1 60.6; #2 27.8; #3 88.3
Rbm38: #1 85.4; #2 71.8
Cyp17a1: #1 79.1; #2 91.9; #3 63.3
Qtgal: #1 65.9; #2 61.8; #3 43.6
Ifna9: #1 62.3; #2 69; #3 43.8
Nol12: #1 79.9; #2 78.2; #3 64.9
Fgf9: #1 48.7; #2 55.9; #3 61.1
Or2a52: #1 67.6; #2 74; #3 46.8

A stretch of the results above:
GFP, % of control, by target and reagent
Mydgf: #2 107; #3 72.2
Gpx7: #1 81.2; #2 54.9; #3 106

The results go on.
GFP, % of control, by target and reagent
Khdc4: #1 96.2; #2 119; #3 72.3
Klc2: #1 101; #2 97.4
Myo9a: #1 43.9; #2 52.6; #3 41.1
Or10x4: #1 48; #2 72.9; #3 54.6
Rcbtb2: #1 161 (active); #2 93.4; #3 91.7
Tcaf2: #1 20.2; #2 103; #3 110
Purg: #1 45; #2 71.7; #3 45.7
Spmip10: #1 88.9; #2 55.9; #3 89.1
Ppp2r3d: #1 81.7; #2 90.1; #3 79.6
Fbxw24: #1 79.6; #2 86.3; #3 92.2
C1ql2: #1 83.4; #2 75; #3 47
Grip1: #1 64.8; #2 124 (active); #3 55.5
